Source: publication PMC10436496
No constants are given. Whether binding was seen depends on the method and setting. In cells and extracts the contact can be indirect. Some binding calls cover weakened binding; strength is not graded here.

Sequences of proteins named here, by UniProt entry; tags and fusion partners are left off.
UniProt P01106: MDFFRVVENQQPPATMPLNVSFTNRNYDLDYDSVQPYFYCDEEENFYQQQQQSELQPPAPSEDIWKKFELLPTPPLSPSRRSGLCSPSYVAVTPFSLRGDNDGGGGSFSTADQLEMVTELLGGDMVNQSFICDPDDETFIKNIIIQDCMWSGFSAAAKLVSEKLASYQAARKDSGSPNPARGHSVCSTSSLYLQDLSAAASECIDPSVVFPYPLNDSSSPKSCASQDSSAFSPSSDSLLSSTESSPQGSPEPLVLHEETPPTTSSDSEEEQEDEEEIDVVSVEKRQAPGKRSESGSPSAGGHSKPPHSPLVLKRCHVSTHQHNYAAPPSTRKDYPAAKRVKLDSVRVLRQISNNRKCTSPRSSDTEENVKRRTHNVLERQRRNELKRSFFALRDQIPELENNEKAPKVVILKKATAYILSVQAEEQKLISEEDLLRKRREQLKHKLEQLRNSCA

Target: c-MYC, endogenous in SW48 and Lovo cells (human (endogenous in SW48 and Lovo)) (UniProt P01106)
Test: co-IP; endogenous proteins in SW48 or Lovo lysate; c-MYC antibody on Protein A/G magnetic beads, lysate rotated overnight at 4 °C, western blot

B1: NEK8, endogenous in SW48 and Lovo cells (enzyme, UniProt Q86SG6 1-692)
chain: MEKYERIRVVGRGAFGIVHLCLRKADQKLVIIKQIPVEQMTKEERQAAQNECQVLKLLNHPNVIEYYENFLEDKALMIAMEYAPGGTLAEFIQKRCNSLLEEETILHFFVQILLALHHVHTHLILHRDLKTQNILLDKHRMVVKIGDFGISKILSSKSKAYTVVGTPCYISPELCEGKPYNQKSDIWALGCVLYELASLKRAFEAANLPALVLKIMSGTFAPISDRYSPELRQLVLSLLSLEPAQRPPLSHIMAQPLCIRALLNLHTDVGSVRMRRAEKSVAPSNTGSRTTSVRCRGIPRGPVRPAIPPPLSSVYAWGGGLGTPLRLPMLNTEVVQVAAGRTQKAGVTRSGRLILWEAPPLGAGGGSLLPGAVEQPQPQFISRFLEGQSGVTIKHVACGDFFTACLTDRGIIMTFGSGSNGCLGHGSLTDISQPTIVEALLGYEMVQVACGASHVLALSTERELFAWGRGDSGRLGLGTRESHSCPQQVPMPPGQEAQRVVCGIDSSMILTVPGQALACGSNRFNKLGLDHLSLGEEPVPHQQVEEALSFTLLGSAPLDQEPLLSIDLGTAHSAAVTASGDCYTFGSNQHGQLGTNTRRGSRAPCKVQGLEGIKMAMVACGDAFTVAIGAESEVYSWGKGARGRLGRRDEDAGLPRPVQLDETHPYTVTSVSCCHGNTLLAVRSVTDEPVPP
Question: Which binding does the source give for B1 here?
Answer: The binding was “binds”.
